According to article doi:10.1101/2022.04.27.489742:
No constants are given. Whether binding was seen depends on the method and setting. For some assays here: Binding can be weak; no strength is given. Where a sequence is shown, tags or fusion partners need not be part of it. For some assays here: Binding seen in cells or lysates may run through a third protein. One block for each molecule: values may come before it.

Columns and labels:
[1] = biological target: T1, GST-Lamin (Drosophila) (UniProt P08928); assay: pull-down
T1 sequence: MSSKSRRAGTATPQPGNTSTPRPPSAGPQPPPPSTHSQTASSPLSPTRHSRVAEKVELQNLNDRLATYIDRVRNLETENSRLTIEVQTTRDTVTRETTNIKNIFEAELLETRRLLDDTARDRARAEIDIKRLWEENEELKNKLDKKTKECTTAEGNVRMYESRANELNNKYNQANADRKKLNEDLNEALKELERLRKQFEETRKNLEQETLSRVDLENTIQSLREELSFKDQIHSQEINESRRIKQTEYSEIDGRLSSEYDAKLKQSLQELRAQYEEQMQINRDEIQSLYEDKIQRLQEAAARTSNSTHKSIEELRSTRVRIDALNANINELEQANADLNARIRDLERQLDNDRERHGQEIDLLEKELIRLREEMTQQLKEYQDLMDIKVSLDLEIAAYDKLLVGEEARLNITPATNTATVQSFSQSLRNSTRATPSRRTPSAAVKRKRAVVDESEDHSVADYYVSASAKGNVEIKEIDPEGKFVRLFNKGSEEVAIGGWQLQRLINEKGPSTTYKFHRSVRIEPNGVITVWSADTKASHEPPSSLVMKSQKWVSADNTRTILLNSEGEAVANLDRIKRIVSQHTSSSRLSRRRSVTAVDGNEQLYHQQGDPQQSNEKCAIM

[2] = biological target: YN-dKeap1 (dKeap1 fused to the N-terminus of YFP) (Drosophila); assay: split reporter

binding [1]: binds
Molecule: dKeap1 without the GST tag (Drosophila)

binding [2]: no binding
B1: YC-Tin (cardiac transcription factor Tinman fused to the C-terminus of YFP) (protein, UniProt P22711 1-416)
chain: MLQHHQQQAQSGGYYDHYTQSPSPGSLTNADALNTTPFSVKDILNMVNQTEAYEGSYGHIDGAATASALFAAGEYQNPHQYLNHQQHQQSELPIPQQQLHHQHLDDGATTSSSLSPLLPPPPHQLYGGYQDYGMPAHMFQHHHGHPHQSFQHSASAYNMSASQFYAGASATAYQTPATYNYNYAGSGEVYGGATPSAVGIKSEYIPTPYVTPSPTLDLNSSAEVDSLQAPTQKLCVNPLSQRLMETASNSSSLRSIYGSDEGAKKKDNSQVTSSRSELRKNSISGNSNPGSNSGSTKPRMKRKPRVLFSQAQVLELECRFRLKKYLTGAEREIIAQKLNLSATQVKIWFQNRRYKSKRGDIDCEGIAKHLKLKSEPLDSPTSLPPPIPNHVMWPPTMQQSQQQQQHHAQQQQMQHM
